Test results taken from patent publication US20260209243A1, “A BIOORTHOGONAL CYCLOADDITION REACTION AND USE THEREOF” (NANJING UNIVERSITY, priority 2022, published 2026).

Test: Kinetics studies: cycloaddition of o-diones with α-AL
Protocol: The cycloaddition kinetics of α-AL with different o-diones in pH 7.4 PBS buffer or in aqueous solution with indicated pH.
Measurement of second order rate constants of (A) reactions of o-dione (25 μM) with furan-2(3H)-one (250 μM) in 1×PBS (pH=7.4) and (B) reactions of oD1 (25 μM) with α-AL (250 μM) in different pH buffer. (When pH=5, 6; oD1 is 250 μM and α-AL is 2.5 mM) by plotting ln[1/(1−x)] versus time of o-dione with furan-2(3H)-one reaction (x represents the percent conversion of o-dione).
All kinetics experiments were carried out at room temperature in 1×PBS (pH=7.4). Second order kinetics were performed by combining o-dione and furan-2(3H)-one in a 1:10 ratio, and the concentration of o-dione is 25/250 μM. Pseudo-first order rate constant kobs was determined by plotting ln[1/(1−x)] versus time and analysis by linear regression. x represents the percent conversion of o-dione. The slope of the linear equation is kobs. The second rate constant k2 was calculated by kobs/[furan-2(3H)-one]. The reported errors for rate constants are based on the standard deviation of the mean for experiments performed in triplicate.

Structure (SMILES)	reactivity with α-AL (pH 7.4)	reactivity with α-AL (PBS solution at pH 7.4)	reaction with α-AL in organic solvents (room temperature, benzene and chloroform)
O=C(C(=O)c1ccccc1)c1ccccc1 [Bz]	no reactivity		
O=C1C(=O)c2cccnc2-c2ncccc21 [PN, phenanthrolinequinone]		high reactivities	
O=C1C(=O)c2ccccc2-c2ccccc21 [PQ, phenanthrene-9,10-dione]		high reactivities	does not occur
